Paper PMC4133157
Results are given in words; binding and its absence hold for the method and conditions named. For part of these data: Binding can be weak; no strength is given. Tags and fused reporters may be left off the sequences shown. For part of these data: In cells and extracts the contact can be indirect.

T1: UNC-40::CFP (C. elegans muscle) (C. elegans) (UniProt G5EF96)
T1 sequence: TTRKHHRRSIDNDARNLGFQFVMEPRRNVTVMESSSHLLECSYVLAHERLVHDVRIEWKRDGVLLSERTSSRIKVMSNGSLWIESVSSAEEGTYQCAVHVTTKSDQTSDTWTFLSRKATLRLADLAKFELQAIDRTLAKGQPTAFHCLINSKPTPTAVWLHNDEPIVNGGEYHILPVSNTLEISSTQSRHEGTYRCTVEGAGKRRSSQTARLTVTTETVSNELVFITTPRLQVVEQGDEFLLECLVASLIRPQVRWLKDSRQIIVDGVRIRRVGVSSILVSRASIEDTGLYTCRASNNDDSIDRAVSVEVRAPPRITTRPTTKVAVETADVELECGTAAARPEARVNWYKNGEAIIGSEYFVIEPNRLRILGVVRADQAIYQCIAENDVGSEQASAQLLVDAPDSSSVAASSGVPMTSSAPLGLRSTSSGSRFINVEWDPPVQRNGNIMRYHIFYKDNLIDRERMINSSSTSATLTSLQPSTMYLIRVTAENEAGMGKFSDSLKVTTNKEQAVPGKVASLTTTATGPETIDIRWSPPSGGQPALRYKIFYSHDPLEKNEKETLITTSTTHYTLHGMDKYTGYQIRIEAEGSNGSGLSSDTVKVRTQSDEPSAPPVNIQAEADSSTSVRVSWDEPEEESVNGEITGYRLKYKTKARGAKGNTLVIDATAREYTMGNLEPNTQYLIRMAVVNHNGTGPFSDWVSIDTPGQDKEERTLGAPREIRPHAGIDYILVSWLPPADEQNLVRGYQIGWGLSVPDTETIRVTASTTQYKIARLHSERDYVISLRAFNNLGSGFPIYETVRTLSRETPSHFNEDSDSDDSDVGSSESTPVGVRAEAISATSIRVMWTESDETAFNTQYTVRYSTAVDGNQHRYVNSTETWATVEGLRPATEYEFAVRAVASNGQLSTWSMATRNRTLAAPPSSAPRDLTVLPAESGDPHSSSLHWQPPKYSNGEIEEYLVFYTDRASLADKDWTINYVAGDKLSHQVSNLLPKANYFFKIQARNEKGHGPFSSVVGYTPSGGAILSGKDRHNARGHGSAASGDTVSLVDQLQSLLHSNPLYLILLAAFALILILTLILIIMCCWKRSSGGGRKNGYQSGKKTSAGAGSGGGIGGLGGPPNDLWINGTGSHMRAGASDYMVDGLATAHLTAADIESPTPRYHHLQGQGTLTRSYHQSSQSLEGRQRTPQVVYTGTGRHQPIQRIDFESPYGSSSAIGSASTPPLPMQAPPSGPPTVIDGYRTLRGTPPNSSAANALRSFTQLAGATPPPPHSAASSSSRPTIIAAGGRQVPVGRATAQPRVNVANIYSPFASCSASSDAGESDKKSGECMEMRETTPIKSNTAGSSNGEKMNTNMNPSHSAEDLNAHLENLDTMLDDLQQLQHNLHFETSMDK

T2: EVA-1::MYC::3XFLAG::CFP (C. elegans muscle) (C. elegans) (UniProt Q9XU98)
T2 sequence: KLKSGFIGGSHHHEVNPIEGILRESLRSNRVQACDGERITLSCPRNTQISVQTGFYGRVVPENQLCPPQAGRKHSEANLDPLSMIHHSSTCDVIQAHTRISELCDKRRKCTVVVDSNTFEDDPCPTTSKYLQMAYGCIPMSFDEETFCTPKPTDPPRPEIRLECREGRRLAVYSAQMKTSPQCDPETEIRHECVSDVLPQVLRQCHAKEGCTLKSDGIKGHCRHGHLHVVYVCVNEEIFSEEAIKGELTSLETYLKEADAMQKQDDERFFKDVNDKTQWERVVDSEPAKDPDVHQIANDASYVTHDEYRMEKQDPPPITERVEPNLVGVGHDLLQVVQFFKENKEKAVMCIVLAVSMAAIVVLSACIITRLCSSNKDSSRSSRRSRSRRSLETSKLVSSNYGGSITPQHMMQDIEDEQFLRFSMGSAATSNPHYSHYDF


Assays:
[1] = target: T1, UNC-40::CFP (C. elegans muscle) (C. elegans); test: recruitment of a secreted YFP-tagged ligand to receptor-expressing muscles in living worms (fluorescence microscopy); MADD-4::YFP secreted from neurons (trIs66); CFP-tagged receptor in body wall muscles; CFP-positive muscles examined for MADD-4::YFP; recruitment by EVA-1::CFP also seen without UNC-40
[2] = target: T2, EVA-1::MYC::3XFLAG::CFP (C. elegans muscle) (C. elegans); test: as above
[3] = target: 3XFLAG::UNC-5 (no death domain) (HEK293T) (C. elegans); test: co-IP; FLAG-tagged receptor on transfected HEK293T cells incubated with 10x concentrated conditioned medium holding the HA- and Gaussia luciferase-tagged ligand, 4 hours at 4°C; cells lysed in TNTE buffer (0.5% Triton X-100), anti-FLAG immunoprecipitation, luciferase activity of the washed immunoprecipitate, normalised to receptor level

binding [1] | binding [2] | Molecule | binding [3]
no binding | binds | MADD-4B::MYC::3XFLAG::YFP (C. elegans neurons) (ligand) | 
 |  | HA::SLT-1::Gaussia luciferase (ligand, UniProt G5EFX6 17-1410) CPAECVCVDRTVSCVGQQLTEVPQNIPNDTIRLDLQDNEITKIGPNDFSSLMNLKALQLMDNQIVTIHNQSFSSLVFLQKLRLSRNRIRHLPDNVFQNNLKLTHLDLSENDITVVSDAQLQGPEFLEVLNLDKNHIFCLENNVISSWVSLEVLTLNGNRLTTFEEPSNARFRQLDLFNNPWNCDCRLRWMRKWLEKAEGQNKTVCATPLNLQGSSIEILQDKFMTCSGNRKRRYKKTCETAEICPLPCTCTGTTVDCRDSGLTYVPTNLPPSTTEIRLEQNQISSIPSHSFKNLKNLTRLDLSKNIITEIQPKAFLGLHNLHTLVLYGNNITDLKSDTFEGLGSLQLLLLNANQLTCIRRGTFDHVPKLSMLSLYDNDIKSISEVTFQNLTSLSTLHLAKNPLICDCNLQWLAQINLQKNIETSGARCEQPKRLRKKKFATLPPNKFKCKGSESFVSMYADSCFIDSICPTQCDCYGTTVDCNKRGLNTIPTSIPRFATQLLLSGNNISTVDLNSNIHVLENLEVLDLSNNHITFINDKSFEKLSKLRELRLNDNKLHHFSSMVLDEQSNLEILDLSGNNIQCFSSIFFNKATRIREIKVIGNDLLCDCRILPLMSWLRSNSSHSIDIPPCQQFQYSDNESDKQRCAAFPEETCSDDSNLCPPKCSCLDRVVRCSNKNLTSFPSRIPFDTTELYLDANYINEIPAHDLNRLYSLTKLDLSHNRLISLENNTFSNLTRLSTLIISYNKLRCLQPLAFNGLNALRILSLHGNDISFLPQSAFSNLTSITHIAVGSNSLYCDCNMAWFSKWIKSKFIEAGIARCEYPNTVSNQLLLTAQPYQFTCDSKVPTKLATKCDLCLNSPCKNNAICETTSSRKYTCNCTPGFYGVHCENQIDACYGSPCLNNATCKVAQAGRFNCYCNKGFEGDYCEKNIDDCVNSKCENGGKCVDLINSYRCDCPMEYEGKHCEDKLEYCTKKLNPCENNGKCIPINGSYSCMCSPGFTGNNCETNIDDCKNVECQNGGSCVDGILSYDCLCRPGYAGQYCEIPPMMDMEYQKTDACQQSACGQGECVASQNSSDFTCKCHEGFSGPSCDRQMSVGFKNPGAYLALDPLASDGTITMTLRTTSKIGILLYYGDDHFVSAELYDGRVKLVYYIGNFPASHMYSSVKVNDGLPHRISIRTSERKCFLQIDKNPVQIVENSGKSDQLITKGKEMLYIGGLPIEKSQDAKRRFHVKNSESLKGCISSITINEVPINLQQALENVNTEQSCSATVNFCAGIDCGNGKCTNNALSPKGYMCQCDSHFSGEHCDEKRIKCDKQKFRRHHIENECRSVDRIKIAECNGYCGGEQNCCTAVKKKQRKVKMICKNGTTKISTVHIIRQCQCEPTKSVLSEK | no binding
